# Test results reported in patent US20110218143A1, “COMPOSITIONS AND METHODS FOR TISSUE REPAIR” (UNIVERSITY OF FLORIDA RESEARCH FOUNDATION, priority 2007, published 2011).
# Some entries share one result that the patent states for a list of compounds.
# What was measured:
# [1] = system: stem cell populations in bone marrow (cd34+, cd45+, Sca-1+ cells); test: FACS of cells expressing stem cell markers CD34, CD45, Sca-1 in bone marrow samples; format: in vivo, C57BL6/J mice; conditions: i.p.
# Procedure: Mice received either a placebo (PBS) or oridonin (3.0 mg/kg) by intraperitoneal injection.
# [2] = system: cytokine production in mouse blood; test: Cytokine/chemokine levels in blood serum (Millipore 21-Plex, Luminex); format: in vivo, C57BL6/J mice; conditions: i.p. celastrol 3.0 mg/kg or 17-AAG 10 mg/kg, sampled 0-72 h
# Procedure: Mice received either a placebo, celastrol (3.0 mg/kg), or 17-AAG (10 mg/kg) by intraperitoneal injection. Blood samples were taken from all groups of mice at 0, 1, 3, 6, 24, 48, and 72 hours after administration of the placebo, celastrol, or 17-AAG. The blood samples were analyzed for cytokine production, including the production of granulocyte-macrophage colony-stimulating factor (GM-CSF), interferon-gamma (IFN-γ), interleukin-10 (IL-10), interleukin-12 subunit beta (IL-12p40), interleukin-12 heterodimer (IL-12p70), interleukin-12 homodimer (IL-12p80), vascular endothelial growth factor (VEGF), tumor necrosis factor-alpha (TNF-α), keratinocyte derived chemokine (KC), RANTES (Regulated upon Activation, Normal T-cell Expressed, and Secreted; CCL5), monocyte chemotactic protein-1 (MCP 1), macrophage inflammatory protein (MIP1β; CCL4), interleukin-4 (IL-4), interleukin-3 (IL-3), interleukin-2 (IL-2), interleukin-1 beta (IL-1β), interleukin-1 alpha (IL-1α), interleukin-9 (IL-9), interleukin-13 (IL-13), interleukin-17 (IL-17), interleukin-6 (IL-6), and interleukin-5 (IL-5). Blood serum was analyzed using a commercially available kit (e.g., Mouse cytokine/chemokine panel: 21-Plex; Millipore). […] The final measurement was performed using a commercially available detector (e.g., computer-operated Luminex 100 IS system) and the results were expressed as pg/ml blood serum sample. […]
# [3] = 24 hours post treatment, celastrol 3.0 mg/kg, TE-140 peptide 250 μg/kg, or both
structure (smiles),measurement,setting,value
CC1=C(O)C(=O)C=C2C1=CC=C1[C@@]2(C)CC[C@@]2(C)[C@@H]3C[C@](C)(C(=O)O)CC[C@]3(C)CC[C@]12C [celastrol],"Sca-1+ cells, percent of the population of bone marrow cells",[1]; [3],≤ 0.2%
same,"cd34+ cells, percent of the population of bone marrow cells",[1]; [3],≤ 0.2%
same,"cd34+ cells, percent of the population of bone marrow cells","[1]; 48 hours post treatment, celastrol alone 3.0 mg/kg, triptolide alone 400 μg/kg, combination celastrol 2.5 mg/kg + triptolide 200 μg/kg",≤ 0.3%
same,"cd45+ cells, percent of the total bone marrow population","[1]; at either 48 hours or 24 hours post treatment, celastrol alone 3.0 mg/kg, triptolide alone 400 μg/kg",≤ 0.1%
same,time by which KC returned to levels seen in the placebo control,[2],up to 48 hours
